PMC12540828, “Fexofenadine protects against osteoarthritis by targeting Smad2 and STAT1 to enhance anabolism and binding cPLA2 to inhibit catabolism” (Cell Death Discovery, 2025)
Results are given in words; binding and its absence hold for the method and conditions named. In cells and extracts the contact can be indirect. Some binding calls cover weakened binding; strength is not graded here.

Protein sequences, listed by entry. Tags and fused reporters are not part of them.
UniProt P42224: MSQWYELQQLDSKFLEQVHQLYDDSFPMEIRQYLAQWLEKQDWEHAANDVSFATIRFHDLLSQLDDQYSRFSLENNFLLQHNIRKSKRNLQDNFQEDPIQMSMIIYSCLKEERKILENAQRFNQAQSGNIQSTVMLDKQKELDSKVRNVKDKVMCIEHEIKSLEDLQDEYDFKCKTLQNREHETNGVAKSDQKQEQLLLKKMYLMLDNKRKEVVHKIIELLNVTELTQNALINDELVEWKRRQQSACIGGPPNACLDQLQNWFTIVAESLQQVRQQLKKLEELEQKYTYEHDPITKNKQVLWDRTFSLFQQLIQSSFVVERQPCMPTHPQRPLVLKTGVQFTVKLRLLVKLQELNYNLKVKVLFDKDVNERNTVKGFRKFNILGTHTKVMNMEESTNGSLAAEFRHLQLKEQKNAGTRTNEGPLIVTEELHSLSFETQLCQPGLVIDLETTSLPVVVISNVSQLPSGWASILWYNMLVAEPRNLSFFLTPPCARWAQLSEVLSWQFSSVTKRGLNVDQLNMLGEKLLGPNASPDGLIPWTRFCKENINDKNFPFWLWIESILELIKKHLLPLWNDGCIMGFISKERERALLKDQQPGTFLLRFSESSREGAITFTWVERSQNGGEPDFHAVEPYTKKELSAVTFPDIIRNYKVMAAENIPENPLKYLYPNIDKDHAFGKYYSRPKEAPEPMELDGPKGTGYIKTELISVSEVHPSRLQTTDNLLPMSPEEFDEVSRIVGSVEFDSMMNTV

Target: T1, Activin Receptor-Like Kinase 5 (ALK5) (human (endogenous in human chondrocytes)) (UniProt P36897)
T1 sequence: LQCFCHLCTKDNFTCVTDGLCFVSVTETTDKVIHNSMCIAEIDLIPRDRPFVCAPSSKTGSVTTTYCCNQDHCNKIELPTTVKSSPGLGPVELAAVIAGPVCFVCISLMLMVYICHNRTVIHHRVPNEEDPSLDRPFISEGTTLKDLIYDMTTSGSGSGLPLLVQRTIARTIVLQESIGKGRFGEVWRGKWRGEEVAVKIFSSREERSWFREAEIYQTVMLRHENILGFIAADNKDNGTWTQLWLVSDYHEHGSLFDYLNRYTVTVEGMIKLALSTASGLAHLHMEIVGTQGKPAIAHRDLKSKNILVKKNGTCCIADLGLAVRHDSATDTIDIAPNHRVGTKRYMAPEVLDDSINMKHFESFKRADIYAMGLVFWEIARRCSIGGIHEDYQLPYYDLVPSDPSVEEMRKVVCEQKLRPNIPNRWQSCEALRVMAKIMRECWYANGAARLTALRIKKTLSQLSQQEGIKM
Test: co-IP; human chondrocyte lysate (1 mg protein) incubated with anti-ALK5 antibody (4 ug) at 4 °C for 4-6 h, Protein A/G Sepharose beads, washed 4-6 times with lysis buffer, Western blot; without FFD

For “Signal Transducer and Activator of Transcription 1 (STAT1) (from UniProt P42224 1-750)”, the binding was “binds”.
